The record followed here is the supplement of paper PMC12067093, “Discovery and optimisation of a covalent ligand for TRIM25 and its application to targeted protein ubiquitination” (Chemical Science, 2025).

Some of the results follow.

Compound in this assay: Cc1cc(ccc1-c1ccccc1)C(=O)N1CCCN(CC1)C(=O)CCl [compound 10]
Nature of the assay: probe-labelled cysteine peptide fold change vs DMSO (competition) (log2 fold change); higher = less target engagement (more negative = stronger competition). Conditions: THP-1, incubation time: 4 h.
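Further: competitive profiling in live THP-1 cells: cysteine peptides tagged with an iodoacetamide desthiobiotin (IA-DTB) probe, intensity after compound treatment relative to DMSO-treated cells.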

“WDR82_Q6UXN9_153_PVCSFDPEGLIFAAGVNSEMVK (UniProt Q6UXN9)”: the “probe-labelled cysteine peptide fold change” value runs as follows: (10 µM) 0.151; (50 µM) 0.23.

For “WDR26_Q9H7D7_238_CELTPLK (UniProt Q9H7D7)”, the “probe-labelled cysteine peptide fold change” value by setting is: (10 µM) -0.149; (50 µM) -0.111.

Turning to “WDR47_O94967_695_VLPFNAETCNATGPDLEFSMHDGTIR (UniProt O94967)”, the “probe-labelled cysteine peptide fold change” value reads like this: (10 µM) -0.0784; (50 µM) 0.226.

In the case of “WDR36_Q8NI36_311_TDGHPVMAAGSPCGHIGLWDLEDK (UniProt Q8NI36)”, the “probe-labelled cysteine peptide fold change” value runs as follows: (10 µM) 0.00283; (50 µM) 0.0431.

For the target “WHAMM_Q8TF30_435_EKQDEVVYYDPCENPEELK (UniProt Q8TF30)”, the “probe-labelled cysteine peptide fold change” value by setting is: (10 µM) -0.569; (50 µM) -0.0123.

On to “WDR55_Q9H6Y2_306_VVGSVGQHTGEPVEELALSHCGR (UniProt Q9H6Y2)”, for which the “probe-labelled cysteine peptide fold change” value is, setting by setting: (10 µM) 0.0947; (50 µM) -0.177.

Regarding “WDR41_Q9HAD4_340_QLISCSEDGSVR (UniProt Q9HAD4)”, the “probe-labelled cysteine peptide fold change” value (10 µM) worked out at 0.062 and the “probe-labelled cysteine peptide fold change” value (50 µM) is -0.00141.

For the target “WDR13_Q9H1Z4_423_QGACVVTGSEDMCVHFFDVER (UniProt Q9H1Z4)”, the “probe-labelled cysteine peptide fold change” value was 0.278 (10 µM) and -0.162 (50 µM).

Consider “XPC_Q01831_536_SIAGIDQWLEVFCEQEEK (UniProt Q01831)”, for which the “probe-labelled cysteine peptide fold change” value by setting is: (10 µM) 0.167; (50 µM) 0.0258.

As for “WDFY1_Q8IWB7_344_VCDSCYDSIKDEDR (UniProt Q8IWB7)”, the “probe-labelled cysteine peptide fold change” value is -0.175 (10 µM) and -0.255 (50 µM).

Regarding “WDR43_Q15061_315_KPLTSNCTIQIATPGK (UniProt Q15061)”, the “probe-labelled cysteine peptide fold change” value runs as follows: (10 µM) -0.00294; (50 µM) -0.0246.

As for “XPNPEP3_Q9NQH7_503_EMNDIEQICSQAS (UniProt Q9NQH7)”, the “probe-labelled cysteine peptide fold change” value runs as follows: (10 µM) -0.468; (50 µM) 0.135.

For “WASHC5_Q12768_969_QQIANELNYSCR (UniProt Q12768)”, the “probe-labelled cysteine peptide fold change” value is, setting by setting: (10 µM) 0.0159; (50 µM) -0.000576.

Turning to “WDR11_Q9BZH6_1071_LAEGVQLLCLIDK (UniProt Q9BZH6)”, the “probe-labelled cysteine peptide fold change” value is 0.0605 (10 µM) and -0.0475 (50 µM).

Turning to “WDR62_O43379_539_VEAHDAEVLCLEYSKPETGLTLLASASR (UniProt O43379)”, the “probe-labelled cysteine peptide fold change” value runs as follows: (10 µM) 0.093; (50 µM) -0.0307.

Take “WDHD1_O75717_598_GTGFDGDQCLGVQLLELGK (UniProt O75717)”: the “probe-labelled cysteine peptide fold change” value is, setting by setting: (10 µM) -0.0321; (50 µM) 0.0617.

For “XIAP_P98170_471_NIAIVFVPCGHLVTCK (UniProt P98170)”, the “probe-labelled cysteine peptide fold change” value is 0.0582 (10 µM) and -0.142 (50 µM).

With “XPO1_O14980_1070_QMSVPGIFNPHEIPEEMCD (UniProt O14980)”, the “probe-labelled cysteine peptide fold change” value is -0.221 (10 µM) and 0.309 (50 µM).

Turning to “WDR41_Q9HAD4_99_ITAIITFPSLESCEEK (UniProt Q9HAD4)”, the “probe-labelled cysteine peptide fold change” value is 0.176 (10 µM) and -0.157 (50 µM).

Take “WT1_P19544_385_HTGVKPFQCK (UniProt P19544)”: the “probe-labelled cysteine peptide fold change” value was 0.139 (10 µM) and -0.211 (50 µM).

Consider “WDFY3_Q8IZQ1_908_CSAALADEDHSLHPPLQR (UniProt Q8IZQ1)”, for which the “probe-labelled cysteine peptide fold change” value by setting is: (10 µM) 0.237; (50 µM) 0.252.

Take “WDR6_Q9NNW5_254_VQNIGHCFGHSAR (UniProt Q9NNW5)”: the “probe-labelled cysteine peptide fold change” value was 0.0488 (10 µM) and -0.072 (50 µM).

With “WDR12_Q9GZL7_97_YTAPQPEQCMFHDDWISSIK (UniProt Q9GZL7)”, the “probe-labelled cysteine peptide fold change” value amounted to 0.107 (10 µM) and 0.0834 (50 µM).

As to “WDR12_Q9GZL7_184+185_ALHCCR (UniProt Q9GZL7)”, the “probe-labelled cysteine peptide fold change” value is -0.224 (10 µM) and -0.338 (50 µM).

Turning to “WDR43_Q15061_291_LAVVCR (UniProt Q15061)”, the “probe-labelled cysteine peptide fold change” value runs as follows: (10 µM) 0.0146; (50 µM) 0.0317.

As for “WIZ_O95785_1048_CEFCGEFFENR (UniProt O95785)”, the “probe-labelled cysteine peptide fold change” value by setting is: (10 µM) 0.292; (50 µM) 0.422.

“WDR41_Q9HAD4_186_NCVVAAVGK (UniProt Q9HAD4)”: the “probe-labelled cysteine peptide fold change” value was 0.2 (10 µM) and 0.101 (50 µM).

For the target “XIAP_P98170_465+471_NIAIVFVPCGHLVTCK (UniProt P98170)”, the “probe-labelled cysteine peptide fold change” value was 0.0779 (10 µM) and -0.137 (50 µM).

As to “WDR44_Q5JSH3_642_ECLCCFQHIDFVTAIAFHPR (UniProt Q5JSH3)”, the “probe-labelled cysteine peptide fold change” value came to 0.254 (10 µM) and 0.531 (50 µM).

On to “WDFY4_Q6ZS81_1665_FRDGLCAGSWVER (UniProt Q6ZS81)”, for which the “probe-labelled cysteine peptide fold change” value was 0.0168 (10 µM) and -0.24 (50 µM).

For the target “WDR70_Q9NW82_430_PLFSASGLPTMFPMTDCCFSPDDK (UniProt Q9NW82)”, the “probe-labelled cysteine peptide fold change” value is, setting by setting: (10 µM) -0.00787; (50 µM) -0.373.

For “WDR74_Q6RFH5_201_LVTCTGYHQVR (UniProt Q6RFH5)”, the “probe-labelled cysteine peptide fold change” value was 0.00749 (10 µM) and -0.115 (50 µM).

As to “WDR3_Q9UNX4_44_YVAVPACEHVFIWDLR (UniProt Q9UNX4)”, the “probe-labelled cysteine peptide fold change” value by setting is: (10 µM) 0.186; (50 µM) 0.448.

With “XPC_Q01831_60_GCSHPGGSADGPAK (UniProt Q01831)”, the “probe-labelled cysteine peptide fold change” value was 0.136 (10 µM) and -0.388 (50 µM).

With “WDR77_Q9BQA1_26_EWNLPPNAPACMER (UniProt Q9BQA1)”, the “probe-labelled cysteine peptide fold change” value is -0.146 (10 µM) and -0.099 (50 µM).

For “WDR36_Q8NI36_463_ESDWDGIIACHQGK (UniProt Q8NI36)”, the “probe-labelled cysteine peptide fold change” value is, setting by setting: (10 µM) -0.0625; (50 µM) -0.0725.

“WDR82_Q6UXN9_141_SPNCQGLMHLQGK (UniProt Q6UXN9)”: the “probe-labelled cysteine peptide fold change” value is, setting by setting: (10 µM) 0.107; (50 µM) 0.319.

For the target “XPNPEP1_Q9NQW7_46_NSEYVTEPIQAYIIPSGDAHQSEYIAPCDCRR (UniProt Q9NQW7)”, the “probe-labelled cysteine peptide fold change” value stood at 0.194 (10 µM) and 0.404 (50 µM).
